Measured values published in patent publication US20240360238A1 (MAGENTA THERAPEUTICS, published 2024).
Where a chain is given by its changes, count along the chain named. Results are given in words; binding and its absence hold for the method and conditions named. A result given as binding can be weak or reduced; the word gives no strength.

B1: HC-22/LC-22 (Ab22) (antibody, IgG1, V domains shown)
VH: QVQLKESGPGLVQPSQTLSLTCTVSGFSLTSYLVHWVRQPPGKTLEWVGLMWNDGDTSYNSALKSRLSISRDTSKSQVFLKMHSLQAEDTATYYCARESNLGFTYWGHGTLVTVSS
VL: DIQMTQSPASLSASLEEIVTITCKASQGIDDDLSWYQQKPGKSPQLLIYDVTRLADGVPSRFSGSRSGTQYSLKISRPQVADSGIYYCLQSYSTPYTFGAGTKLELK
notes: From rat immunization/hybridoma; purified IgG in BLI; also called 022
B2: HC-18/LC-18 (Ab18) (antibody, IgG1, V domains shown)
VH: EVQLQQYGAELGKPGTSVRLSCKVSGYNIRNTYIHWVNQRPGEGLEWIGRIDPTNGNTISAEKFKTKATLTADTSSHTAYLQFSQLKSDDTAIYFCALNYEGYADYWGQGVMVTGSS
VL: DIQMTQSPSFLSASVGDRVTINCKASQNINKYLNWYQQKVGEAPKRLIFKTNSLQTGIPSRFSGSGSGTDYTLTISSLQTEDVATYFCFQYNIGYTFGAGTKVELK
notes: From rat immunization/hybridoma; purified IgG in BLI; also called 018
B3: HC-20/LC-20 (Ab20) (antibody, IgG1, V domains shown)
VH: EVQLQQYGAELGKPGTSVRLSCKLSGYKIRNTYIHWVNQRPGKGLEWIGRIDPANGNTIYAEKFKSKVTLTADTSSNTAYMQLSQLKSDDTALYFCAMNYEGYEDYWGQGVMVTVSS
VL: B2 VL with R18S, V40L, F49H, N52D, T80P, N92K, I93S, Y95F, T96M, V103L
notes: From rat immunization/hybridoma; purified IgG in BLI; also called 020
B4: HC-23/LC-23 (Ab23) (antibody, IgG1, V domains shown)
VH: B2 VH with N38H, T66S, H77N, L81M, L98M, G115V
VL: B2 VL with V19L, V40L, T80P, Y95F, V103L
notes: From rat immunization/hybridoma; purified IgG in BLI; also called 023
B5: HC-28/LC-28 (Ab28) (antibody, IgG1, V domains shown)
VH: B3 VH with L24V
VL: B2 VL with R18S, V40L, F49H, T56P, I58F, T80P, T85A, I93S, Y95F, V103L
notes: From rat immunization/hybridoma; purified IgG in BLI; also called 028
B6: HC-27/LC-27 (Ab27) (antibody, IgG1, V domains shown)
VH: EVQLVESGGGLVQPGRSMKLSCKASGFTFSNYDMAWVRQAPTRGLEWVASISYDGITAYYRDSVKGRFTISRENAKSTLYLQLVSLRSEDTATYYCTTEGGYVYSGPHYFDYWGQGVMVTVSS
VL: DIQMTQSPSSMSVSLGDTVTITCRASQDVGIFVNWFQQKPGRSPRRMIYRATNLADGVPSRFSGSRSGSDYSLTISSLESEDVADYHCLQYDEFPRTFGGGTKLELK
notes: From rat immunization/hybridoma; purified IgG in BLI; also called 027
B7: HC-25/LC-25 (Ab25) (antibody, IgG1, V domains shown)
VH: QIQLVQSGPELKKPGESVKISCKASGYTFTDYAIHWVKQAPGQGLRWMAWINTETGKPTYADDFKGRFVFSLEASASTAHLQISNLKNEDTATFFCAGGSHWFAYWGQGTLVTVSS
VL: SYELIQPPSASVTLENTVSITCSGDELSNKYAHWYQQKPDKTILEVIYNDSERPSGISDRFSGSSSGTTAILTIRDAQAEDEADYYCLSTFSDDDLPIFGGGTKLTVL
notes: From rat immunization/hybridoma; purified IgG in BLI; also called 025
B8: HC-19/LC-19 (Ab19) (antibody, IgG1, V domains shown)
VH: EVQLQESGPGLVKPSQSLSLTCSVTGYSISSNYRWNWIRKFPGNKVEWMGYINSAGSTNYNPSLKSRISMTRDTSKNQFFLQVNSVTTEDTATYYCARSLRGYITDYSGFFDYWGQGVMVTVSS
VL: DIRMTQSPASLSASLGETVNIECLASEDIFSDLAWYQQKPGKSPQLLIYNANSLQNGVPSRFSGSGSGTRYSLKINSLQSEDVATYFCQQYKNYPLTFGSGTKLEIK
notes: From rat immunization/hybridoma; purified IgG in BLI; also called 019
B9: HC-24/LC-24 (Ab24) (antibody, IgG1, V domains shown)
VH: EVQLVESGGGLVQSGRSLKLSCAASGFTVSDYYMAWVRQAPTKGLEWVATINYDGSTTYHRDSVKGRFTISRDNAKSTLYLQMDSLRSEDTATYYCARHGDYGYHYGAYYFDYWGQGVMVTVSS
VL: DIVLTQSPALAVSLGQRATISCRASQTVSLSGYNLIHWYQQRTGQQPKLLIYRASNLAPGIPARFSGSGSGTDFTLTISPVQSDDIATYYCQQSRESWTFGGGTNLEMK
notes: From rat immunization/hybridoma; purified IgG in BLI; also called 024
B10: HC-17/LC-17 (Ab17) (antibody, IgG1, V domains shown)
VH: QIQLVQSGPELRKPGESVKISCKASGYTFTDYAMYWVKQAPGKGLKWMGWINTYTGKPTYADDFKGRFVFSLEASANTANLQISNLKNEDTATYFCARARGLVDDYVMDAWGQGTSVTVSS
VL: SYELIQPPSASVTLGNTVSLTCVGDELSKRYAQWYQQKPDKTIVSVIYKDSERPSGISDRFSGSSSGTTATLTIHGTLAEDEADYYCLSTYSDDNLPVFGGGTKLTVL
notes: From rat immunization/hybridoma; purified IgG in BLI; also called 017
B11: HC-21/LC-21 (Ab21) (antibody, IgG1, V domains shown)
VH: QIQLVQSGPELKKPGESVKISCKASGYTFTDYAVYWVIQAPGKGLKWMGWINTYTGKPTYADDFKGRFVFSLETSASTANLQISNLKNEDTATYFCARGAGMTKDYVMDAWGRGVLVTVS
VL: B10 VL with G56D
notes: From rat immunization/hybridoma; purified IgG in BLI; also called 021

target: cynomologus monkey CD117 ectodomain (aa26-521; F6V858) expressed on cell lines (cynomolgus monkey); test: flow cytometry on cell line expressing the ectodomain (hybridoma screening)

How did the binding turn out when B1 was run?
The binding was “binds”.

B2 was tested. Which binding did it give?
Its binding is “binds”.

B3 was tested. Which binding did it give?
Its binding is “binds”.

Which binding does the source give for B4 here?
Its binding is “binds”.

B5 was tested. Which binding did it give?
The binding was “binds”.

Which binding does the source give for B6 here?
Its binding is “binds”.

With B7 as the binder, how does the binding read?
The binding was “binds”.

How did the binding turn out when B8 was run?
The binding was “binds”.

How did the binding turn out when B9 was run?
The binding was “binds”.

For B10, which binding is on record?
The binding was “binds”.

B11 was tested. Which binding did it give?
Its binding is “binds”.
